Consider 2 molecules from patent US11898097B2, “Modified acid compositions as alternatives to conventional acids in the oil and gas industry” (priority 2017, dated 2024).

Series [1] is described as follows: Dissolution testing, calcium carbonate. The following applies: 23° C.
Series [2] in a line: Wormholing testing (matrix acidizing experiments). To be noted: optimal condition, Buijse and Glasbergen model fit.
Series [3] can be described thus: Comparative corrosion testing on 1018 steel coupons. The following applies: 110° C., 6 hours, corrosion package none.

“And” between values parts separate entries of the source, which are not always exact repeats. Equal entries are not always repeated. Structures can show the parent of a compound that is named as a salt.

Regarding `Cl` [HCl 28%, hydrochloric acid], the “Weight Loss/g” value in series [1] was 19.011 g and 21.16 g.
On to `Cl` [15% HCl, hydrochloric acid], for which, in series [2], the “PVbt-opt (optimal pore volume to breakthrough)” value is 0.46 and the “Vi-opt (optimal interstitial velocity)” value was 1.97. Moreover, in series [1] (listed as HCl 15%), the “Weight Loss/g” value is 10.7119 g and 9.5133 g. In series [3], the “Loss wt.” value amounted to 25.722 g, the Mils/yr is 45436.180 Mils/yr and the mm/year is 1154.079 mm/year.
